Measurements from article PMC1184076.
No constants are given. Whether binding was seen depends on the method and setting. For some assays here: Binding seen in cells or lysates may run through a third protein. Some results given as binding are weak or reduced against the parent protein; the word gives no strength.

Amino acid sequences for entries named in this document (tags omitted).
UniProt P25963: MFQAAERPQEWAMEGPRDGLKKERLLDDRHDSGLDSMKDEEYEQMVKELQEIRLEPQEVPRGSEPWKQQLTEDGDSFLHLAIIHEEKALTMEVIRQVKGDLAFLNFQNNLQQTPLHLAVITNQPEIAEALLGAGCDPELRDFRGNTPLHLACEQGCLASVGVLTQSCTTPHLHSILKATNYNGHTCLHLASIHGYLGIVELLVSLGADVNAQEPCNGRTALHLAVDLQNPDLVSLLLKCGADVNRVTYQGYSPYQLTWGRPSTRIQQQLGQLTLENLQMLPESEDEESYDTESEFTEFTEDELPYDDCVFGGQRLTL

What was measured:
[1] = target: GST-p53, purified, bacterially produced (UniProt P04637); assay: condition: only p53 precipitated with monoclonal antibody Ab3 directed at amino acids 212–217 of p53; co-IP; purified GST-p53 incubated with purified His-IκBα in IP buffer; p53 precipitated with monoclonal antibody Ab3 (amino acids 212-217 in the DNA binding core of p53) and protein A/G beads; Western blot for IκBα; both purified
[2] = target: endogenous wild-type p53 of A2085 melanoma cells (human (endogenous in A2085 melanoma cells)) (UniProt P04637); assay: co-IP; extracts of A2085 cells (stably transfected with HA-ΔA5-IκBα or vector) irradiated 30" with UVB and harvested 4 hrs later; immunoprecipitation with anti-p53 Ab2 or polyclonal anti-HA; Western blot with anti-IκBα (C-terminus) or anti-p53 Ab3
[3] = target: GST-p53, purified, bacterially produced (UniProt P04637); assay: pull-down; data not shown: COS cell lysate with wild-type IκBα co-precipitated with GST-p53; only the target purified
[4] = target: wild-type p53 synthesized in rabbit reticulocyte lysate (UniProt P04637); assay: co-IP; unpublished observations: reticulocyte lysate p53 and IκBα alleles precipitated with the p53 antibody Ab2
[5] = target: wild-type IκBα synthesized in rabbit reticulocyte lysate (UniProt P25963); assay: co-IP; p53 and IκBα alleles separately synthesized in rabbit reticulocyte lysate, 35S-labelled; 10 μl of lysates in 100 μl IP buffer, 2 hours at 4°C; precipitated with rabbit polyclonal antiserum to the C-terminus of IκBα and protein G plus/A beads; autoradiography, gel densitometry

In the case of “6xHis-tagged IκBα (His-IκBα), purified, bacterially produced (from UniProt P25963 1-317)”, the binding [1] is reported as “no binding”.

For “endogenous wild-type IκBα of A2085 melanoma cells (from UniProt P25963 1-317)”, the binding [2] was “binds”.

“wild-type IκBα expressed in COS cells (from UniProt P25963 1-317)” was tested, and the binding [3] was “binds”.

In the case of “wild-type IκBα synthesized in rabbit reticulocyte lysate (from UniProt P25963 1-317)”, the binding [4] is reported as “binds”.

For “wild-type p53 synthesized in rabbit reticulocyte lysate (from UniProt P04637 1-393)”, the binding [5] was “binds”.
